Experimental data reported in the supplement of paper PMC5949888.
Most values lie at the floor of the assay. Slopes are relative: functional sequences can read slightly below zero.

system: Saccharomyces cerevisiae PS128 hsf1 delta, HSF1(1-493) fusion; test: growth estimate (transactivation domain function in HSF1 fusion, heat-shock survival) (a.u. (slope of normalised read count over time)); higher = stronger growth at 37°C, i.e. more transactivation activity; conditions: library: random library
Method: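 Random 60-nt DNA library encoding peptides of up to 20 aa, fused to the C-terminus of yeast HSF1 residues 1-493 (C-terminal TAD deleted) and expressed from the native HSF1 promoter on a CEN plasmid in hsf1-deleted S. cerevisiae PS128. Cells were selected at 37°C on -trp 5-FOA plates for 0, 2, 4, 6 and 8 days and amplicons were sequenced. Growth estimate is the slope of a robust linear fit of total-sum-normalised read counts (normalised to the first time point) over time, using at least 2 replicates. Sequences are classed functional (TAD activity) above a threshold of -0.13, set from stop-codon control sequences.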

Substance	growth estimate
LLKRKTEVVTGGLNH	< -0.25
KRCCLRSFP	< -0.25
VERETISTTPNGVWALRGSP	< -0.25
YGIRTVYFRPEPRIGCIAPK	< -0.25
APNIVKSESGRMRFKSGYTI	< -0.25
LHSTSCRQRGQG	< -0.25
PRIPERNLPFNGLRLVWTRA	< -0.25
VSALFFDNMCGIVEFIIGVN	< -0.25
HDITDA	< -0.25
KMFSVMELEAGICAASHVHC	-0.2
DWGQCTVHMRCSETTESACR	< -0.25
MFR	< -0.25
SARISSRAK	< -0.25
TGPTKQARSVA	< -0.25
HRKCHAERDVQL	< -0.25
IGTRGSKPNSSLG	< -0.25
ILSKPILLQFVRWCFQAWSL	< -0.25
AGSKVLGIA	< -0.25
REGYFR	-0.246
ASFGPLCLRLKYDFKRMSMS	< -0.25
QLDLC	< -0.25
TFVFAVRAPTTNMLRDRATE	< -0.25
FMYETSYANGAPMSHVHASV	< -0.25
VAGCPISATKHPELTNSLGV	< -0.25

Substance	growth estimate
SFIYLVRQAPRKELAVFHRA	< -0.25
FKSTRADSHRAGKCGSACFR	< -0.25
RGGAQDRLRFQCTKEPTTTT	< -0.25
ASVGLWVEDWAQDPEQLSGQ	< -0.25
DVQTGRYMRMPLLCVTSLLS	< -0.25
WVM	< -0.25
HCCGVRCSGNPTA	< -0.25
GMLFTFHARDINYCTFRLGF	< -0.25
QRAYGSSECKL	< -0.25
YGGIDAWSGD	-0.191
YALWTDSWFSSGSPEDCMDQ	< -0.25
VSKAACILVIDSEGYEAGDR	< -0.25
SVNPLVSGGEDMR	< -0.25
PIDKQVIERSLNGCHRCEVR	< -0.25
QCVGDIASARILL	< -0.25
EADV	< -0.25
AGADRCQDCIGYYVSRD	< -0.25
PGRTERNHVVCPTIRF	< -0.25
LSAYRPCVCLRTRLRSVLLD	< -0.25
GQASSLTIS	< -0.25
GSSVDRLS	< -0.25
ALRGVFVPRKECKLLHVYHG	< -0.25
IYHGAYTAIDARTRRGRTQA	-0.223
GRCR	< -0.25

Substance	growth estimate
RTEQLGRI	< -0.25
LCPCCTSCGSAVRTQRKPRS	< -0.25
FAEVRIVYF	< -0.25
GASCPWAVIRWTGIVLVSRM	< -0.25
TGCF	< -0.25
AGGPLLSARSNLLLSANVGL	< -0.25
QRVRDRTEPTAPCWPGRSAH	< -0.25
RKKIVLSGGNACRDVEVV	< -0.25
KRFMSMARLLYGVSAVVSDR	< -0.25
EKYSARYHRRTRDHFRLVP	< -0.25
GCGVF	< -0.25
WRYDDQPDKLGAQTLGSLFM	< -0.25
ADRLGPCNDPRRNLCRCGIP	< -0.25
VVHLATWPSGRYRV	< -0.25
RKYSMPRCGAHGNDSACRPK	< -0.25
VDLGTSPPLRRNISCYLIDQ	< -0.25
IGGPEKS	< -0.25
IVTQVMWAGGRYLTSSV	< -0.25
VECTRRL	< -0.25
GLVRLSACSNC	< -0.25
QHQG	< -0.25
DIFRTIAQALGFWARDQRWG	< -0.25
NPFTFDRNRTVR	< -0.25
EGGVTQTLVMEAEDHGTHSL	< -0.25

Nothing new here: entries from further up.
Substance	growth estimate
TGCF	< -0.25
AGGPLLSARSNLLLSANVGL	< -0.25
QRVRDRTEPTAPCWPGRSAH	< -0.25
RKKIVLSGGNACRDVEVV	< -0.25
KRFMSMARLLYGVSAVVSDR	< -0.25
EKYSARYHRRTRDHFRLVP	< -0.25

(further entries)

Substance	growth estimate
RGRSR	< -0.25
LALSAKA	< -0.25
ELGRGTLFSGNNA	< -0.25
LGRVRLRAHTTRVS	-0.243
SGNLSSDCGRARKVGRAGKA	< -0.25
MVQIDCGMKGDLGRH	< -0.25
VVLLRYVREGGNL	< -0.25
SESAT	< -0.25
SGCTFAGTDKSPKRALRG	< -0.25
FLR	< -0.25
KARDA	< -0.25
CGTSNGA	< -0.25
LGLSFYG	< -0.25
CVFDFSSSRQHFRTGIFASS	< -0.25
IIKVLFLVKCGEYGNTCRTP	-0.243
SRVHINTAEALRFSLA	< -0.25
RLVITRNTISRG	< -0.25
GCDSSLDDGDRV	< -0.25
KVRLKKHARGPDACGLLLAK	< -0.25
LGTCYGGPPARKEPVVQIIT	< -0.25
TEEMGFIGYI	< -0.25
REPIEIGSSSQPLSPRARV	< -0.25
PRYYLRKHRVGNTQHQLHTA	< -0.25
PDNPVMPQVLKGFHLFIVVI	< -0.25

Two entries from above, bar-delimited:
Substance | growth estimate
RTEQLGRI | < -0.25
LCPCCTSCGSAVRTQRKPRS | < -0.25

Further results.

Substance	growth estimate
LDYSPVHRKVGGTLAIGSSR	< -0.25
RPRHKIA	< -0.25
IPSTLTHS	< -0.25
QTSS	< -0.25
QLVRNQTGGTRNNSTDPGKR	< -0.25
APAV	< -0.25
YQDIRAER	< -0.25
RVRIDSQR	< -0.25
AVPRFIAAPRKAPEGGSWLG	< -0.25
IHQIQ	< -0.25
DPRSSPLT	< -0.25
EESLP	< -0.25
SDA	< -0.25
ALGWAR	< -0.25
LAASPIQIRKLSVSVRTAAN	< -0.25
PPPIGISHDVHLMQWSNSG	< -0.25
STEWIYASKAIIH	< -0.25
GLLG	< -0.25
KFTSVDTSVMNHLEIRDPLA	< -0.25
CVKKFCLNLGHGGVPPIPLG	< -0.25
TASMGRVSTTSEVLRGLAMV	< -0.25
RDWPFIPNDTESAGPPARKI	< -0.25
RKTVETKLSG	< -0.25
WMVRFSPRSDIDKVTKACRD	< -0.25

Substance	growth estimate
ATKNVLLDGHISYHLAARYH	< -0.25
GTLGLLGPASCPPLTRCRNG	< -0.25
NASNYSTERRGCVRPHKVGR	< -0.251
KPPSIHMGA	< -0.25
LSGTI	-0.248
GGPWSYPTF	< -0.25
CTMK	< -0.25
LRAELAYKHTRIVQIRTDFR	< -0.25
EVWDYRDNRSSDP	< -0.25
LLLLKSAKIDSVRRS	< -0.25
KCGQGSTGF	< -0.25
LSGGLFFNEERSRELYHLGK	< -0.25
GKFERYLQVVGHGNGPVTCL	< -0.25
KGGSWG	< -0.25
NRISD	-0.246
GATARF	< -0.25
IRWHYTA	< -0.25
YPLCIGAVRFQRNIRFRTGL	< -0.25
KRSCFTMEVAGSRAGQSGPI	< -0.25
WYFVRVRGSGPKDGLGPTSI	< -0.25
AHRAKSVFL	< -0.25
RNQKPVLWPRQLWGLVTPIM	< -0.25
TMY	< -0.25
TATSEHLYLLTVLRQECSMY	< -0.25

Substance	growth estimate
VLEWSDAFL	< -0.25
IEASQNSP	< -0.25
RPRGYRQSPRPDVWVEGGMN	< -0.25
WYRREAEEGTVCMNGYLTEG	< -0.25
NSPSGMGHLATQLIRATRSD	< -0.25
GMHGQACFLNRRPGCCLRPP	< -0.25
GFCFP	< -0.25
RVIYEMLMRV	< -0.25
GAASQYRLELRYGGKRAKVY	< -0.25
VTRVLSPHISNAFTFERPIY	< -0.25
QSAIGSRAPL	< -0.25
LVQPPRVPCLRHPLVLATV	< -0.25
TWIDRFQRDEQLPC	< -0.25
TWLANRVH	< -0.25
VFSIGLNGDSIYKSKAVCRR	< -0.25
LVPTC	0.207
YADAPNWF	< -0.25
DGKCASREPAFDGTTDSFSR	< -0.25
GGERYVHVKTDC	< -0.25
RHVSTA	< -0.25
NSLNRSSTGREADGGLILYP	< -0.25
VVQAFYPTFKTRSLGKSQSA	< -0.25
GIGISPRLL	< -0.25
TMRWSVYRLDVACWSISG	< -0.25

Substance	growth estimate
KPNVPRRQMGLGFW	-0.246
RRKPFDRDSAQPDRSVTTGH	< -0.25
QGNKWLALIGTVRP	-0.243
RSSNHQSSVVDVGNFVPLER	< -0.25
GTISASHVIGPDALQGICAY	< -0.25
ILQGRFGGRTTMPPSGS	-0.246
NNSGCQTFVRKMQPGGSNFS	< -0.25
EYATCLQLITLCLPRASAGP	< -0.25
LTCQLWILVLWSISSDGRQA	< -0.25
TSNQQHRDMRRNDCITLGRQ	< -0.25
HYCYSRCGGVTIEGGI	< -0.25
VKMWICLFFGAAG	< -0.25
VPHSTTGQDLPSNSMRLTIG	< -0.25
KGGSRVGLEGRVRAYSNRQV	< -0.25
LSVGTREEVVWWELGLQSN	0.0527
QYVIGIFEI	< -0.25
GVRGQYVSKKTGHYSRFYLT	< -0.25
KVYRDDANFCPNHAADGVLT	< -0.25
LGRGTLVLS	< -0.25
GHSA	< -0.25
DRWPPIVHFDELGDGGYDPQ	< -0.25
GSRYYPKRWTCSD	< -0.25
LFAVIVEFNEARPVA	< -0.25
QQILAMGAFPAVFPQRRFVH	< -0.25

Reprinted at random: 4 entries already listed, in no set order.
Substance	growth estimate
QQILAMGAFPAVFPQRRFVH	< -0.25
VKMWICLFFGAAG	< -0.25
KPNVPRRQMGLGFW	-0.246
NNSGCQTFVRKMQPGGSNFS	< -0.25
